Measurements reported in patent publication US20060251638A1, “Cytoprotection through the use of hif hydroxylase inhibitors” (priority 2003, published 2006).
Some results were stated once for a whole list of compounds, not compound by compound.

Test system: HO-1 gene expression
Test: HO-1 gene expression in H9c2 cardiomyocytes by microarray analysis
Type: cell-based, rat
Settings: H9c2, 10 μM, 24 hours, FIG. 6

Row | SMILES | HO-1 gene expression increase compared to non-treated control cells
1 | O=C(O)CNC(=O)c1ncc2cc(Sc3ccccc3)ccc2c1O [Compound C, [(4-Hydroxy-7-phenylsulfanyl-isoquinoline-3-carbonyl)-amino]-acetic acid] | 2- to 3 fold
2 | O=C(O)CNC(=O)c1ncc2ccc(Sc3ccccc3)cc2c1O [Compound D, [(4-Hydroxy-6-phenylsulfanyl-isoquinoline-3-carbonyl)-amino]-acetic acid] | 2- to 3 fold
